Measured values reported in paper PMC8009681.
Results are given in words; binding and its absence hold for the method and conditions named. In cells and extracts the contact can be indirect. These calls come from enrichment with a bait or labelling near it, and not all partners need be listed.

Amino acid sequences for entries named in this document (tags omitted). A change or cut given only in a name is not applied to a line headed by its entry.
UniProt Q9LXU1: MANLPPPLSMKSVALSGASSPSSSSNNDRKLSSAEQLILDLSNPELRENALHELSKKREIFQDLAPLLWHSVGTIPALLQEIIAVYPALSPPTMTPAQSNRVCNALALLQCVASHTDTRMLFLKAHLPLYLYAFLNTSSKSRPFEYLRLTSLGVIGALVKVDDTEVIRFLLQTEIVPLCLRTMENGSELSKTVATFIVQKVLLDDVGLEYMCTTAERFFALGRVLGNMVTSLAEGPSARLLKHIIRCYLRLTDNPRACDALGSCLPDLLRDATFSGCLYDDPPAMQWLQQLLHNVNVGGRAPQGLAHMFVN

Molecular target: HA-YFP-NOT9B (Arabidopsis NOT9Box lines) (Arabidopsis thaliana) (UniProt Q9LXU1)
Assay: affinity purification with mass spectrometry; Arabidopsis seedlings (NOT9Box line 21c or YFP-HA), 4 days dark, FR light 5 hr; αGFP MicroBeads, IP buffer with 150 mM NaCl; LC-MS/MS of eluates

binding: binds
B1: phyA (endogenous) (protein, UniProt P14712 1-1122)
chain: MSGSRPTQSSEGSRRSRHSARIIAQTTVDAKLHADFEESGSSFDYSTSVRVTGPVVENQPPRSDKVTTTYLHHIQKGKLIQPFGCLLALDEKTFKVIAYSENASELLTMASHAVPSVGEHPVLGIGTDIRSLFTAPSASALQKALGFGDVSLLNPILVHCRTSAKPFYAIIHRVTGSIIIDFEPVKPYEVPMTAAGALQSYKLAAKAITRLQSLPSGSMERLCDTMVQEVFELTGYDRVMAYKFHEDDHGEVVSEVTKPGLEPYLGLHYPATDIPQAARFLFMKNKVRMIVDCNAKHARVLQDEKLSFDLTLCGSTLRAPHSCHLQYMANMDSIASLVMAVVVNEEDGEGDAPDATTQPQKRKRLWGLVVCHNTTPRFVPFPLRYACEFLAQVFAIHVNKEVELDNQMVEKNILRTQTLLCDMLMRDAPLGIVSQSPNIMDLVKCDGAALLYKDKIWKLGTTPSEFHLQEIASWLCEYHMDSTGLSTDSLHDAGFPRALSLGDSVCGMAAVRISSKDMIFWFRSHTAGEVRWGGAKHDPDDRDDARRMHPRSSFKAFLEVVKTRSLPWKDYEMDAIHSLQLILRNAFKDSETTDVNTKVIYSKLNDLKIDGIQELEAVTSEMVRLIETATVPILAVDSDGLVNGWNTKIAELTGLSVDEAIGKHFLTLVEDSSVEIVKRMLENALEGTEEQNVQFEIKTHLSRADAGPISLVVNACASRDLHENVVGVCFVAHDLTGQKTVMDKFTRIEGDYKAIIQNPNPLIPPIFGTDEFGWCTEWNPAMSKLTGLKREEVIDKMLLGEVFGTQKSCCRLKNQEAFVNLGIVLNNAVTSQDPEKVSFAFFTRGGKYVECLLCVSKKLDREGVVTGVFCFLQLASHELQQALHVQRLAERTAVKRLKALAYIKRQIRNPLSGIMFTRKMIEGTELGPEQRRILQTSALCQKQLSKILDDSDLESIIEGCLDLEMKEFTLNEVLTASTSQVMMKSNGKSVRITNETGEEVMSDTLYGDSIRLQQVLADFMLMAVNFTPSGGQLTVSASLRKDQLGRSVHLANLEIRLTHTGAGIPEFLLNQMFGTEEDVSEEGLSLMVSRKLVKLMNGDVQYLRQAGKSSFIITAELAAANK
